# In the supplement of paper PMC10849652:
# Amino acid sequences for entries named in this document (tags omitted). A change or cut given only in a name is not applied to a line headed by its entry.
# UniProt Q8IWU2: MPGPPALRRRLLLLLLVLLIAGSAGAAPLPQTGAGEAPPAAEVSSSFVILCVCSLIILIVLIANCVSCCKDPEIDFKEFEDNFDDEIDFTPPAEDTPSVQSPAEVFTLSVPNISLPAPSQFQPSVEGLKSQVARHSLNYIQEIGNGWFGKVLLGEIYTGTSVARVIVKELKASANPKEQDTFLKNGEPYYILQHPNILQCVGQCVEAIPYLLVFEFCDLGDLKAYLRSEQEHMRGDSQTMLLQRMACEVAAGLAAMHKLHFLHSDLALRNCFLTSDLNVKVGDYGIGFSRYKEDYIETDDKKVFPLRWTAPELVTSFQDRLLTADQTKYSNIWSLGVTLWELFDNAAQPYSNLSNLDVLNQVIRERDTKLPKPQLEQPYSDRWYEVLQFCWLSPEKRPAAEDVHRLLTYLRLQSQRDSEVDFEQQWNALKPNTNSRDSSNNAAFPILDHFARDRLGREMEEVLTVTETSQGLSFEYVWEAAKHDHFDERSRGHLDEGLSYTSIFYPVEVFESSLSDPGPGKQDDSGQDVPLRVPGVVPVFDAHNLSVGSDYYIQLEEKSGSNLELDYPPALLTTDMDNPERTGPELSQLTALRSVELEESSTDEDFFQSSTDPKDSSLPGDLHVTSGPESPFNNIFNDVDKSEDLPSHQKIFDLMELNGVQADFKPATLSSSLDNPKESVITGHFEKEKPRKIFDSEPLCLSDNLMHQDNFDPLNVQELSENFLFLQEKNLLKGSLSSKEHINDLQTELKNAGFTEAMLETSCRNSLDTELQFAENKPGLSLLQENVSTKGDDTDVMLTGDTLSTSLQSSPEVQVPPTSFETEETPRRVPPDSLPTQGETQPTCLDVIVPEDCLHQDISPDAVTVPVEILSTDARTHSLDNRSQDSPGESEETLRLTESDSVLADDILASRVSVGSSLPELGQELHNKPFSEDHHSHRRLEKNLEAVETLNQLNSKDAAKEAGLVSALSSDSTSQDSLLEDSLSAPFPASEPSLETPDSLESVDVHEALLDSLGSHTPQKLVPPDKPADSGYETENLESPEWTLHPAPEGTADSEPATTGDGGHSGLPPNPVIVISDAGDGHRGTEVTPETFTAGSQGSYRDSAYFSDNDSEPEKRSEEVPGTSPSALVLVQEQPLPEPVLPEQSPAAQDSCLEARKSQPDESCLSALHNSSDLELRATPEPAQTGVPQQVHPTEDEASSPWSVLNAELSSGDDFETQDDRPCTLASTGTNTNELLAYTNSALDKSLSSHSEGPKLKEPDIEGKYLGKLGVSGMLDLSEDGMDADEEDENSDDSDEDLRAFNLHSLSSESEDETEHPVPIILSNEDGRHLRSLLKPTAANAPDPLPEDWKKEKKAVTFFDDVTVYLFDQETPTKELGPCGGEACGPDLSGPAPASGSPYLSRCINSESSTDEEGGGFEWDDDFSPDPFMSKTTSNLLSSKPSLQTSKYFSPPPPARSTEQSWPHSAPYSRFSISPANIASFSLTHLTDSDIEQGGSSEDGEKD
# UniProt Q96FE5: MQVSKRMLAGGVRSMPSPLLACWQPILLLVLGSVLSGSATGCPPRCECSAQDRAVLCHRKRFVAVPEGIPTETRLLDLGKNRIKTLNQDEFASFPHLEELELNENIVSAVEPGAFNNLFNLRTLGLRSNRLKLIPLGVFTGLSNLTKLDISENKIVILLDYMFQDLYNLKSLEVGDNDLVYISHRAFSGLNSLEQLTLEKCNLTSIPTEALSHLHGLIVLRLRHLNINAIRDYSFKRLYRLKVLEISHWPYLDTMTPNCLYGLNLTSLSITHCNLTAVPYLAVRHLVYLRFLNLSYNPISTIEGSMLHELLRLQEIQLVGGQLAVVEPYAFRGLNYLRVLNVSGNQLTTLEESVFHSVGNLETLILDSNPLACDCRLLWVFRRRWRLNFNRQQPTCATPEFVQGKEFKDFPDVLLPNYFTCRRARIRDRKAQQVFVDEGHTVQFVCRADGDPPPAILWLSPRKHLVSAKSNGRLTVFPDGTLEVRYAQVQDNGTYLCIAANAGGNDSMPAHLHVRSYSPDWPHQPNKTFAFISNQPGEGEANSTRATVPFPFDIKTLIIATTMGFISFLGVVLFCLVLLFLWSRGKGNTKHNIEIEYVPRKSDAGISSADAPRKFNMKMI
# UniProt Q86U70: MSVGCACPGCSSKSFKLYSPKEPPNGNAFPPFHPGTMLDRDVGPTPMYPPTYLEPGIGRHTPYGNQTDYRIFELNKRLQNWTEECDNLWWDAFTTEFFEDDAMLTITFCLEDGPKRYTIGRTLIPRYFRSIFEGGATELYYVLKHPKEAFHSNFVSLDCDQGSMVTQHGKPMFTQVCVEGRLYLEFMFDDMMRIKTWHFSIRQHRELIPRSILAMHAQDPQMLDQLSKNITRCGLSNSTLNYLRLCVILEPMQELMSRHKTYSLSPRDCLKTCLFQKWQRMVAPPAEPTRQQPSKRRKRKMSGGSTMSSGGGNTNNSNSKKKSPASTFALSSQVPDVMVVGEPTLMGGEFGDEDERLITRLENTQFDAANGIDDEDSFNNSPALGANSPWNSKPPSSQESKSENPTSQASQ
# UniProt Q96BZ8: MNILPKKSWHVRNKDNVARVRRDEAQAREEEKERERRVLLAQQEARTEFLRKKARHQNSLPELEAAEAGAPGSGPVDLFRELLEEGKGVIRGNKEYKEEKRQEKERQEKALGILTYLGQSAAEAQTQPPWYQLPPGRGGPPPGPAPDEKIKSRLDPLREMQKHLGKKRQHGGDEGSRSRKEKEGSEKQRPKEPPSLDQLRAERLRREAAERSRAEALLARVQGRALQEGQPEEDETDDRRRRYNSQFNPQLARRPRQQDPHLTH
# UniProt Q9UFC0: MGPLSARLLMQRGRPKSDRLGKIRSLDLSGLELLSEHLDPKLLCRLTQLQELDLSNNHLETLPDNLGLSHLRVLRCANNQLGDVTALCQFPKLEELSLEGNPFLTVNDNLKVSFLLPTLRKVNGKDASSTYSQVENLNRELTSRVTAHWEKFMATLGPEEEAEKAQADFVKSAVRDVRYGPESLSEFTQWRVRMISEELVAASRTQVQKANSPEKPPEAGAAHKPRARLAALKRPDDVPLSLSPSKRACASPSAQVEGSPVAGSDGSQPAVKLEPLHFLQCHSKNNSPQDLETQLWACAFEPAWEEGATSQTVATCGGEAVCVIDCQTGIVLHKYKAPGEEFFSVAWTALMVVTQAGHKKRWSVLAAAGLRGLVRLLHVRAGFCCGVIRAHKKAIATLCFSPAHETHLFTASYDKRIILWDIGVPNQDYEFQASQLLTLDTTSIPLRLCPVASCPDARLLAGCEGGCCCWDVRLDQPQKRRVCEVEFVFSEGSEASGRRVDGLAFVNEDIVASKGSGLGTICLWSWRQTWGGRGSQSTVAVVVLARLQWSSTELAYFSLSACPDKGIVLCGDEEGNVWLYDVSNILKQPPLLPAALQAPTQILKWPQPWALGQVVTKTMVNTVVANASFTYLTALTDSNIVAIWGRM
# UniProt Q9H9A6: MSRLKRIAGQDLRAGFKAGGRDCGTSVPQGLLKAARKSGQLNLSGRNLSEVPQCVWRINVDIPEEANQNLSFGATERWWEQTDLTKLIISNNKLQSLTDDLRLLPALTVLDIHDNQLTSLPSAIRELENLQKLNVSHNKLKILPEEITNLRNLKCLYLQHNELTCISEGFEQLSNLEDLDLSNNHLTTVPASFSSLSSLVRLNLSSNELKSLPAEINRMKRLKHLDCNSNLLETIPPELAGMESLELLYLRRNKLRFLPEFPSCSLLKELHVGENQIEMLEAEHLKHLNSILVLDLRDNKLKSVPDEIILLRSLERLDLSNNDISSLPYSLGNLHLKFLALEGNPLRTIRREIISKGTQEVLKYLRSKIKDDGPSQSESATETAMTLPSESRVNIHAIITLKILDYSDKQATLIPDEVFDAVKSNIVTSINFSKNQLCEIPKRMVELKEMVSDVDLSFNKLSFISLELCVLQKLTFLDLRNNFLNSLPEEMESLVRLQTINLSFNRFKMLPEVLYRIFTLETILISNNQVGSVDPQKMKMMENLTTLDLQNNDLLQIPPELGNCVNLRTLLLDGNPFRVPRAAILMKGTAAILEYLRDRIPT
# UniProt Q13094: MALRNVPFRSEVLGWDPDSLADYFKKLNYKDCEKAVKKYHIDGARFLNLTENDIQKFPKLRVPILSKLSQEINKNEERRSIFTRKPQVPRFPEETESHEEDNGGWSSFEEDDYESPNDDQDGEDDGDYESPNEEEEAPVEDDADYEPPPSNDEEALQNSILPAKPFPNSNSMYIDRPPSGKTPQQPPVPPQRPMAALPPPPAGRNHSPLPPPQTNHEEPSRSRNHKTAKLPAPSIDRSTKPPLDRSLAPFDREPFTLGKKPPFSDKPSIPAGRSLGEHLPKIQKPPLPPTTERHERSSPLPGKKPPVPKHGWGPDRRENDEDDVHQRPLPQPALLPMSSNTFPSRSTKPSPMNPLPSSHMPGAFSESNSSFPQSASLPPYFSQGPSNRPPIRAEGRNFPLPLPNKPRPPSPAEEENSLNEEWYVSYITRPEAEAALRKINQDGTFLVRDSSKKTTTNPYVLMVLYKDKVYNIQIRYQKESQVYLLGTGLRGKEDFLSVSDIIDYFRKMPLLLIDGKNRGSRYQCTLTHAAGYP
# UniProt P30533, whole entry, looked up: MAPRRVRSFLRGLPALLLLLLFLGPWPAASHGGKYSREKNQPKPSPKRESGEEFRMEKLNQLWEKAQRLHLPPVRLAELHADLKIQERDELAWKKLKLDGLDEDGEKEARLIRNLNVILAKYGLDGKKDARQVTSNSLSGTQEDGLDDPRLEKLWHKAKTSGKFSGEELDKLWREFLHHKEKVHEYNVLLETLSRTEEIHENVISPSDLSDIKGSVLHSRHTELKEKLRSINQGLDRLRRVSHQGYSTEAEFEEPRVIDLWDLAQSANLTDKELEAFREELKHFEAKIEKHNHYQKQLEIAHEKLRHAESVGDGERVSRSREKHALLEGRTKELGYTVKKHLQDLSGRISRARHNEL
# UniProt P48449: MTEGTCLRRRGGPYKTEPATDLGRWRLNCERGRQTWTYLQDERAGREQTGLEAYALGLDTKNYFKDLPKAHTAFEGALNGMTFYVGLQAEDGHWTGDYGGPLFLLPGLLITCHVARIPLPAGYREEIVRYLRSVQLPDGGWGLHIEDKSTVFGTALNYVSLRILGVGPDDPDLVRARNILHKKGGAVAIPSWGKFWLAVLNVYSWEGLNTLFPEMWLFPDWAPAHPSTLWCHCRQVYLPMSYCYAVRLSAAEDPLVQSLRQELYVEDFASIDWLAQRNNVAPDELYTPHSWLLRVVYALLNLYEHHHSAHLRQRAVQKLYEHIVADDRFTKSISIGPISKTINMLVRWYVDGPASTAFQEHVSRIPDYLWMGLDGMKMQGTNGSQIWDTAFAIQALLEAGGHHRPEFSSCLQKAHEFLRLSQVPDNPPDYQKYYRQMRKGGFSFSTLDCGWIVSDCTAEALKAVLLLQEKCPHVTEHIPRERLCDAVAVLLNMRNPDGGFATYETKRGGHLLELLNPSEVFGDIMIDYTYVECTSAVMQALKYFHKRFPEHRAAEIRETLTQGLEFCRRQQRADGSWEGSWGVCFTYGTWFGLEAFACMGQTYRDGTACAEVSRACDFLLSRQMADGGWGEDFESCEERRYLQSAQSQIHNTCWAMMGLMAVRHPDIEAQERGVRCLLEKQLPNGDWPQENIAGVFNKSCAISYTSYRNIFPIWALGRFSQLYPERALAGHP
# UniProt Q8TDW0: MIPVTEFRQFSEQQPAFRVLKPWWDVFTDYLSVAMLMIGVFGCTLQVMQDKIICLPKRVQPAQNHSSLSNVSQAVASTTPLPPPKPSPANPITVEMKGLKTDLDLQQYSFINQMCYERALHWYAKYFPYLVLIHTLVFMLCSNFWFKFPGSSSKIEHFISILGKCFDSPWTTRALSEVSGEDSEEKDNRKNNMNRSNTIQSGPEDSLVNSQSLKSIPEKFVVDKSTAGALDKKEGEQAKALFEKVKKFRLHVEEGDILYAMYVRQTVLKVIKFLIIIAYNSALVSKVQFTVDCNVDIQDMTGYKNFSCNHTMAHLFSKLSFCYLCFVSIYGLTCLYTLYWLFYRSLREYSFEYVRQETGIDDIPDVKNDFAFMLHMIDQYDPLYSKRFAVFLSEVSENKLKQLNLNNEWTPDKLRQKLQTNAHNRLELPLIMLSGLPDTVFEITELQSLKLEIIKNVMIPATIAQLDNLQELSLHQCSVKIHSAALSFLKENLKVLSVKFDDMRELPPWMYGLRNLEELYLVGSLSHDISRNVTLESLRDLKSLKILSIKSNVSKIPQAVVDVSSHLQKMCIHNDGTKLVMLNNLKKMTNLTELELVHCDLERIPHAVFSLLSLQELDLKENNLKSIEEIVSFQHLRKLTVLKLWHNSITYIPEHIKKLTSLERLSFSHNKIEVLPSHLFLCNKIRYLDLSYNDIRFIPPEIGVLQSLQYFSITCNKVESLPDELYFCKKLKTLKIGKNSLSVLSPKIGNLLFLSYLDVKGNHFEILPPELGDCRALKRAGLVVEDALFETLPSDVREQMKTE
# UniProt P62312: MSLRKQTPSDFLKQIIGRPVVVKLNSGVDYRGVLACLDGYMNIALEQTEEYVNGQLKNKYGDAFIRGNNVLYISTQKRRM
# The other results are listed elsewhere or left out.
# Compound: C1=CC(=CC=C1C2=NC3=C(N2)C=C(C=C3)C(=O)N)OC4=CC=C(C=C4)Cl
# Test: log2 fold change, soluble protein after heating vs DMSO (PISA); higher = thermal stabilisation; K562 lysate, 10 uM; active = over 0.2 and 3.5 SD of the protein, either way, in both replicates (recomputed)
# Method in brief: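 Quantification was by TMTpro 16plex LC-MS/MS with equalised channel sums, applied to the supernatant after 21,000xg for 90 min. Samples were crude K562 extract at 1 mg/mL protein in PBS pH 7.4 with 1 mM MgCl2, treated with 10 μM compound for 30 min, heated for 3 min across 48°C-58°C, pooled and brought to 0.5% NP-40 at 4°C. Values are log-two fold changes in thermal stability relative to solvent controls, from duplicates.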
row,Target,log2 fold change
1,LIG1 (UniProt P18858),inactive: 0.024
2,LMTK2 (UniProt Q8IWU2),inactive: 0.046
3,LMNA (UniProt P02545),inactive: 0.003
4,LARS2 (UniProt Q15031),active: 0.549
5,LINGO1 (UniProt Q96FE5),inactive: -0.079
6,LDB1 (UniProt Q86U70),inactive: 0.051
7,LRRC57 (UniProt Q8N9N7),inactive: 0.031
8,LDHC (UniProt P07864),inactive: 0
9,LENG1 (UniProt Q96BZ8),inactive: -0.025
10,LRRC8A (UniProt Q8IWT6),inactive: 0.005
11,LRWD1 (UniProt Q9UFC0),inactive: 0.031
12,LRRC40 (UniProt Q9H9A6),inactive: 0.004
13,LCP2 (UniProt Q13094),inactive: 0.032
14,LRCH3 (UniProt Q96II8),inactive: 0.021
15,LSM8 (UniProt O95777),inactive: -0.003
16,LIN54 (UniProt Q6MZP7),inactive: 0.087
17,LRPAP1 (UniProt P30533),inactive: 0.008
18,LRRC8B (UniProt Q6P9F7),inactive: -0.011
19,LSS (UniProt P48449),inactive: 0.001
20,LRRC8C (UniProt Q8TDW0),inactive: -0.041
21,LPIN1 isoform 7 (UniProt Q14693),inactive: 0.027
22,LRRFIP2 (UniProt Q9Y608),inactive: 0.043
23,LSM6 (UniProt P62312),inactive: 0.007
24,LSM1 (UniProt O15116),inactive: 0.006

# 2 records picked at random from those above, as already listed:
row,Target,log2 fold change
24,LSM1 (UniProt O15116),inactive: 0.006
10,LRRC8A (UniProt Q8IWT6),inactive: 0.005
